Measurements from patent publication US20210253711A1.
No constants are given. Whether binding was seen depends on the method and setting. A result given as binding can be weak or reduced; the word gives no strength.

How the values were obtained:
[1] = target: Recombinant MICA*04 protein; assay: ELISA, coated MICA*04 (100 ng/well), goat anti-mouse IgG-HRP, OD 450 nm
[2] = target: Recombinant MICA*02 protein; assay: ELISA, coated MICA*02 (100 ng/well), goat anti-mouse IgG-HRP, OD 450 nm
MICA*04-His protein = assay: BLI epitope binning, MICA*04-His on Ni-NTA tips
[3] = target: Recombinant MICA*08 protein; assay: ELISA, coated MICA*08 (100 ng/well), goat anti-mouse IgG-HRP, OD 450 nm
[4] = target: Recombinant MICA*04 protein; assay: ELISA, antigen coated on the plate
[5] = target: Recombinant MICA*09 protein; assay: ELISA, antigen coated on the plate
[6] = target: Recombinant MICA*08 protein; assay: ELISA, antigen coated on the plate
[7] = target: Recombinant MICA*02 protein; assay: ELISA, antigen coated on the plate
[8] = target: Recombinant MICA*09 protein; assay: ELISA, coated MICA*09 (100 ng/well), goat anti-mouse IgG-HRP, OD 450 nm
[9] = target: MICA*08 expressed on TRAMP-C2 cells (TC2-MICA-08); assay: flow cytometry on TC2-MICA-08 cells
[10] = target: MICA*08 expressed on TRAMP-C2 cells (TC2-MICA-08); assay: flow cytometry on TC2-MICA-08 cells, 500 ng antibody in 100 µl
[11] = target: MICA*08 expressed on TRAMP-C2 cells (TC2-MICA-08); assay: flow cytometry, 500 ng antibody in 100 µl, PE goat anti-mouse IgG, TC2-MICA-08 cells against parental TC2 cells

Measured: binding

B1: 16F10.C12 (antibody, V domains shown)
VH: EVQLQESGPGLVAPSQSLSITCTVSGFSLTAFGVNWVRQPPGKGLEWLGMIWGDGNTDYNSTLRSRLSISKDNSKSQVFLKLNSLQTDDTARYFCARETYYGNYAGLGYWGQGTLVTVSA
VL: QIVLTQSPAIMSASIGERVTMTCTASSSVSSNYLHWYQQKPRSSPKLWIYTTSNLASGVPTRFSGSGSGTSYSLTISSMEAEDAATYYCHQFHRSPFTFGSGTKLEIK
not listed: [9] | [10] | [11]
binds: all other assays above

B2: 3F9.E4 (antibody, V domains shown)
VH: EVQLQESGEGLVKPGGSLKLSCAASGFTFSNYAMSWVRQTPEKRLEWVAYISPGGDYIYYADTVKGRFTISRDNARNTLYLQMSSLKSEDTAMYYCTTDRRHYGSYAMDYWGQGISVTVSS
VL: DIVMTQAAPSVPVTPGESVSISCRSSKSLLHSNGNTYLYWFLQRPGQSPQLLIYRMSNLASGVPDRFSGSGSGTAFTLRISRVEAEDVGVYYCMQHLEYPFTFGSGTKLEIK
binds: all assays above
